Results published in the supplement of paper PMC11732987, “Enantioselective OTUD7B fragment discovery through chemoproteomics screening and high-throughput optimisation” (Communications Chemistry, 2025).
Some of the results follow. The data scatter; read single values as rough.

Compound: ClCC(=O)N[C@H]1CCCc2ccccc12
Assay: log2 mean competition ratio of IA-DTB cysteine labelling (DMSO/compound) (log2 ratio); higher = stronger cysteine engagement by compound
Details: 200 µM; treatment time: 4 h; cell line lysate: HEK293T
Protocol: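 IA-DTB competitive cysteine chemoproteomics in HEK293T RIPA lysate. Lysates were treated with compound 29 or 30 at 50 or 200 µM for 4 h, then IA-DTB (500 µM, 1 h), trypsin-digested, NeutrAvidin-enriched and analysed by diaPASEF. Competition ratio = intensity DMSO / intensity compound (n=4 treated, n=64 DMSO); binding: mean log2 CR ≥ 1 and p ≤ 0.05 plus QC filters. Target is the cysteine site.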

Row | Target | log2 mean competition ratio
1 | MOB3A C186 (UniProt Q96BX8) | -0.332
2 | MED12 C1651 (UniProt Q93074) | -0.166
3 | MICU1 C83 (UniProt Q9BPX6) | 0.146
4 | MIS18BP1 C686 | 0.0231
5 | MICU2 C8 (UniProt Q8IYU8) | 0.289
6 | MED8 C31 (UniProt Q96G25) | -0.252
7 | MGA C1402 (UniProt Q8IWI9) | 0.281
8 | MDN1 C309 (UniProt Q9NU22) | 0.0935
9 | MED14 C708 (UniProt O60244) | -0.346
10 | MDN1 C4192 (UniProt Q9NU22) | -0.0438
11 | MED14 C635 (UniProt O60244) | 0.29
12 | METTL2A C171 (UniProt Q96IZ6) | 0.104
13 | MLLT1 C479 (UniProt Q03111) | -0.00711
14 | MIA2 C1236 (UniProt Q96PC5) | 0.216
15 | MKNK2 C225 (UniProt Q9HBH9) | 0.104
16 | MKRN1 C186 (UniProt Q9UHC7) | 0.24
17 | MKRN1 C98 (UniProt Q9UHC7) | -0.0683
18 | MORC4 C324 | 0.326
19 | MORC4 C116 | 0.13

Row | Target | log2 mean competition ratio
20 | MOCS2 C182 | 0.19
21 | MLST8 C298 (UniProt Q9BVC4) | 0.0552
22 | MLXIP C8 (UniProt Q9HAP2) | 0.388
23 | MED17 C488 (UniProt Q9NVC6) | 0.0186
24 | MED29 C181 (UniProt Q9NX70) | 0.428
25 | MON1A C465 (UniProt Q86VX9) | -0.312
26 | MIDEAS C502, A0A1C7CYX1 | -0.0459
27 | MIF C81 (UniProt P14174) | -1.73
28 | MIOS C576 (UniProt Q9NXC5) | 0.0931
29 | MOB3B C87 (UniProt Q86TA1) | 0.295
30 | MOCOS C686 (UniProt Q96EN8) | 0.4
31 | MED17 C15 (UniProt Q9NVC6) | -0.0945
32 | MPP2 C270 | 0.117
33 | MKNK1 C101 (UniProt Q9BUB5) | 0.0583
34 | MRM3 C309 (UniProt Q9HC36) | 0.391
35 | MED16 C267 (UniProt Q9Y2X0) | 0.0623
36 | MED13 C1375 (UniProt Q9UHV7) | -0.0434
37 | MRPL16 C167 (UniProt Q9NX20) | -0.127

An excerpt of these results, as tab-separated lines.
Row	Target	log2 mean competition ratio
27	MIF C81 (UniProt P14174)	-1.73
28	MIOS C576 (UniProt Q9NXC5)	0.0931
